Results taken from paper PMC8165482.
No constants are given. Whether binding was seen depends on the method and setting. Binding seen in cells or lysates may run through a third protein. Some results given as binding are weak or reduced against the parent protein; the word gives no strength.

By UniProt entry, the sequences of proteins in these tests, tags left out. Residues count along the entry.
UniProt Q15116, residues 25-288: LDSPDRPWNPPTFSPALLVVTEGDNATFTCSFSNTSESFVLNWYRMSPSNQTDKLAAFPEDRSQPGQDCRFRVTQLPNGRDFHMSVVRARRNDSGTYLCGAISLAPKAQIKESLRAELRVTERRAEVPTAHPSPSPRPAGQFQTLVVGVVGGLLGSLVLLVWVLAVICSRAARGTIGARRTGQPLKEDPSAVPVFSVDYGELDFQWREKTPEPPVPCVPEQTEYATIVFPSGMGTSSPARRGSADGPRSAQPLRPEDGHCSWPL

Biological target: T1, CD68 (human (endogenous in THP-1)) (UniProt P34810)
T1 sequence: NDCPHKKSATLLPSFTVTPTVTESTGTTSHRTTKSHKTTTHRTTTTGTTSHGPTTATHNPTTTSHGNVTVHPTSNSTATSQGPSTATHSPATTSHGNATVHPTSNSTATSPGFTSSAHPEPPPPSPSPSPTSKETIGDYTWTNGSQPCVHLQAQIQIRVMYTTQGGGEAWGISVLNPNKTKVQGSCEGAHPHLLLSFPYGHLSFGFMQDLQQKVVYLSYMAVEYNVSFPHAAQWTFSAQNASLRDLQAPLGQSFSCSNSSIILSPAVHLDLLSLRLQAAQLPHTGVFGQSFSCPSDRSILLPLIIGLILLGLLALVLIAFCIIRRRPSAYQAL
Assay: co-IP; THP-1 derived macrophages lysed in RIPA buffer, lysate pre-cleared with protein A/G-agarose; anti-CD68 antibody overnight at 4°C, protein A/G agarose beads 4 h at 4°C, 6 washes; immunoblotting

programmed cell death protein 1 (PD-1) (from UniProt Q15116 25-288) (receptor)
binding: binds
